# Assay results taken from the supplement of paper PMC10663445.
# Structures can show the parent of a compound that is named as a salt. Some of the results follow. Many values rest on one well or one pass, so single values are uncertain.
# Tested on: hsa-miR-132-3p
# Experiment: miR-132-3p level in NGN2-iNs after compound treatment (TMM-normalised, ComBat batch-corrected) (batch-corrected normalised expression (arbitrary units)); higher = higher miR-132-3p expression
# Conditions: 10 µM; 24 h; human iPSC-derived NGN2 neurons (BR43)
row,SMILES,miR-132-3p level in NGN2-iNs
1,Cc1cccc(Cc2c[nH]cn2)c1C [Detomidine HCl],0.486
2,CCCC[N+]1(C)[C@@H]2C[C@@H](OC(=O)[C@H](CO)c3ccccc3)C[C@H]1[C@@H]1O[C@@H]12 (stereo not given in full) [Butylscopolamine Bromide],1.17
3,O=c1ccc2cc(O[C@@H]3O[C@H](CO)[C@@H](O)[C@H](O)[C@H]3O)c(O)cc2o1 [Esculin],0.0805
4,CN1CCCCC1Cn1cc(C(=O)c2cc([N+](=O)[O-])ccc2I)c2ccccc21 (stereo not given),0.631
5,CC(=O)O[C@H]1C[C@@H]2CC[C@@H]3[C@H](CC[C@@]4(C)[C@H]3C[C@H]([N+]3(C)CCCCC3)[C@@H]4OC(C)=O)[C@@]2(C)C[C@@H]1[N+]1(C)CCCCC1 [Pancuronium dibromide],-0.672
6,O=C1C=CC[C@@H]2[C@H]3CCCN4CCC[C@@H](CN12)[C@@H]34 [Sophocarpine],-0.361
7,O=C(NCC1CCOCC1)c1cnc(Nc2ccc(Cl)cc2Cl)nc1C(F)(F)F,-0.543
8,Cn1c(CCCC(=O)O)nc2cc(N(CCCl)CCCl)ccc21 [Bendamustine HCl],-2.85
9,CC(C)(C)c1cc(C=C(C#N)C#N)cc(Br)c1O,0.294
10,CC(C)[C@]12O[C@H]1[C@@H]1O[C@]13[C@]1(O[C@H]1C[C@H]1C4=C(CC[C@@]13C)C(=O)OC4)[C@@H]2O [Triptolide (PG490)],-0.37
11,CN(C)[C@@H]1C(=O)C(C(N)=O)=C(O)[C@@]2(O)C(=O)C3=C(O)c4c(O)cccc4[C@@](C)(O)[C@H]3C[C@@H]12 [Tetracycline HCl],-0.758
12,CN1[C@@H]2C[C@@H](OC(=O)[C@H](CO)c3ccccc3)C[C@H]1[C@@H]1O[C@@H]12 [Scopolamine HBr],-0.232
13,"O=[N+]([O-])C=Cc1ccc2c(c1)OCO2 [MNS (3,4-Methylenedioxy-β-nitrostyrene)]",-0.328
14,C/C(=C\c1csc(C)n1)[C@@H]1C[C@@H]2O[C@@H]2CCC[C@H](C)[C@H](O)[C@@H](C)C(=O)C(C)(C)[C@@H](O)CC(=O)O1 [Epothilone A],0.583
15,COc1ccc(N(C(=O)Oc2c(C)cccc2C)c2ccnc(Nc3ccc(N4CCN(C)CC4)cc3)n2)c(OC)c1,0.911
16,CN(C)CCc1ccc(O)cc1 [Hordenine],-0.392
17,O=c1cccc2n1C[C@@H]1CNC[C@H]2C1 [Cytisine],0.555
18,"CN1CCc2cc3c(cc2C1C1OC(=O)c2c1ccc1c2OCO1)OCO3 (single isomer, unassigned; (+)) [(+)-Bicuculline]",-0.277

# An excerpt of these results, with tabs:
row	SMILES	miR-132-3p level in NGN2-iNs
2	CCCC[N+]1(C)[C@@H]2C[C@@H](OC(=O)[C@H](CO)c3ccccc3)C[C@H]1[C@@H]1O[C@@H]12 (stereo not given in full) [Butylscopolamine Bromide]	1.17
17	O=c1cccc2n1C[C@@H]1CNC[C@H]2C1 [Cytisine]	0.555

# (more compounds)

row,SMILES,miR-132-3p level in NGN2-iNs
1,CC(O)(CS(=O)(=O)c1ccc(F)cc1)C(=O)Nc1ccc(C#N)c(C(F)(F)F)c1 (stereo not given) [Bicalutamide],0.0368
2,CCOC(=O)c1cncn1[C@H](C)c1ccccc1 [Etomidate],-0.166
3,O=C(O)c1nn(Cc2ccc(Cl)cc2Cl)c2ccccc12 [Lonidamine],-0.437
4,C[C@]12CC[C@H](O)CC1=CC[C@@H]1[C@@H]2CC[C@]2(C)C(=O)CC[C@@H]12 [Dehydroepiandrosterone (DHEA)],0.0408
5,O=[N+]([O-])c1ncc[nH]1 [Azomycin],0.134
6,C=C1C[C@@H]2[C@H](CC[C@]3(C)C(=O)CC[C@@H]23)[C@@]2(C)C=CC(=O)C=C12 [Exemestane],0.204
7,CCCN1CCO[C@@H]2c3cc(O)ccc3OC[C@H]21,-0.253
8,CN(C)[C@@H]1C(=O)C(C(N)=O)=C(O)[C@@]2(O)C(=O)C3=C(O)c4c(O)cccc4[C@@](C)(O)[C@H]3[C@H](O)[C@@H]12 [Oxytetracycline (Terramycin)],-0.354
9,CCc1cc2c(s1)-n1c(C)nnc1CN=C2c1ccccc1Cl [Etizolam],1.33
10,Cc1sc2c(c1C)C(c1ccc(Cl)cc1)=N[C@@H](CC(=O)OC(C)(C)C)c1nnc(C)n1-2,-1.14
11,Cc1ccccc1-n1c(Cn2ncc3c(N)ncnc32)nc2cccc(C)c2c1=O,-0.964
12,COc1cc(OC)c(OC)cc1C=O [Asaraldehyde],-0.767
13,Cc1sc2c(c1C)C(c1ccc(Cl)cc1)=NC(CC(N)=O)c1nnc(C)n1-2 (stereo not given),-0.795
14,OC(c1ccccc1)(c1ccccc1)C1CCNCC1 [Azacyclonol],1.38
15,CC(C)NCC(O)c1ccccc1Cl (stereo not given) [Clorprenaline HCl],-2.54
16,CN1CCN(c2nc3ccccc3nc2Cl)CC1,-0.236
17,CN(C)C(=O)Oc1ccc[n+](C)c1 [Pyridostigmine Bromide],-1.02
